Test results as given in the supplement of paper PMC10849652.
The list shows a part of the results.

Compound: C[C@H](C1=CC=C(C=C1)C(=O)NC2=C3C=CNC3=NC=C2)N
Test: log2 fold change, soluble protein after heating vs DMSO (PISA); higher = thermal stabilisation; K562 lysate, 10 uM; active = over 0.2 and 3.5 SD of the protein, either way, in both replicates (recomputed)
Outline: (§1)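 Dounce homogenisation of K562 pellets in PBS pH 7.4 with 1 mM MgCl2 produced a crude extract, used at 1 mg/mL protein. Exposure to 10 μM compound lasted 30 min, and aliquots were then heated for 3 min across 48°C-58°C, pooled and brought to 0.5% NP-40 at 4°C. The supernatant after 21,000xg for 90 min was quantified by TMTpro 16plex LC-MS/MS with channel sums equalised. Duplicate values are given as log-two fold change in thermal stability relative to solvent controls.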

log2 fold change, inactive:
PRKCQ (UniProt Q04759) -0.14, PPP1R3D (UniProt O95685) 0, PPP5C (UniProt P53041) -0.104, PRMT9 (UniProt Q6P2P2) -0.088, PRKAR1B (UniProt P31321) -0.124, PRKX (UniProt P51817) 0.315, PRORP (UniProt O15091) -0.118, PRNP (UniProt P04156) -0.075, PRPF19 (UniProt Q9UMS4) -0.001, PPP2R5B (UniProt Q15173) -0.017, PPP6R1 (UniProt Q9UPN7) -0.025, PPP6C isoform 3 (UniProt O00743) -0.05, PRKACA (UniProt P17612) -0.159, PRKD2 isoform 3 (UniProt Q9BZL6) -0.047, PPP2R3B (UniProt Q9Y5P8) 0.048, PPP1R14C (UniProt Q8TAE6) -0.022, PRKDC (UniProt P78527) -0.088, PPP1R13L (UniProt Q8WUF5) -0.037, PRMT1 (UniProt Q99873) -0.161, PROS1 (UniProt P07225) -0.009, PRKCA (UniProt P17252) 0.054, PPP2CB (UniProt E5RHC1) -0.287, PPM1H (UniProt Q9ULR3) -0.043, PRADC1 (UniProt Q9BSG0) 0.166, PPP2R2D (UniProt Q66LE6) -0.149, PRMT7 (UniProt Q9NVM4) -0.014, PPP2R2A isoform 2 (UniProt P63151) -0.06, PPT1 (UniProt P50897) 0.08, PPP1CB (UniProt P62140) -0.024, PRPF6 (UniProt O94906) -0.023

log2 fold change, active:
PRKD3 (UniProt O94806) -0.643, PRG4 (UniProt Q92954) -1.36

Compound: C[C@H](Nc1ncnc2nc[nH]c12)c1cc2cccc(Cl)c2c(=O)n1-c1ccccc1 [duvelisib]
Test: as above
Outline: as §1

log2 fold change, inactive:
PPP4R4 (UniProt Q6NUP7) 0.019, PRKCQ (UniProt Q04759) 0.022, PPP5C (UniProt P53041) 0.011, PRMT9 (UniProt Q6P2P2) 0.033, PRKAR1B (UniProt P31321) -0.032, PRKX (UniProt P51817) 0.038, PRORP (UniProt O15091) 0.157, PRNP (UniProt P04156) -0.085, PRPF19 (UniProt Q9UMS4) 0.002, PPP2R5B (UniProt Q15173) 0.021, PPP6R1 (UniProt Q9UPN7) 0.004, PPP6C isoform 3 (UniProt O00743) -0.004, PRKACA (UniProt P17612) -0.059, PRKD2 isoform 3 (UniProt Q9BZL6) 0.05, PPP1R14C (UniProt Q8TAE6) 0.121, PRKDC (UniProt P78527) 0.298, PRG4 (UniProt Q92954) 0.042, PRMT1 (UniProt Q99873) 0.017, PROS1 (UniProt P07225) -0.004, PPP1R12B isoform 6 (UniProt O60237) 0.036, PRKCA (UniProt P17252) -0.057, PPP2CB (UniProt E5RHC1) 0.328, PPM1H (UniProt Q9ULR3) 0, PRADC1 (UniProt Q9BSG0) -0.069, PPP2R2D (UniProt Q66LE6) 0.01, PRMT7 (UniProt Q9NVM4) 0.035, PPP2R2A isoform 2 (UniProt P63151) 0.003, PPT1 (UniProt P50897) -0.038, PPP1CB (UniProt P62140) -0.016, PRPF6 (UniProt O94906) -0.023

Compound: Cc1cc(Nc2cc(CN3CCOCC3)c3nc(C)c(Cc4ccc(Cl)cc4F)n3n2)n[nH]1 [gandotinib]
Test: as above
Outline: as §1

log2 fold change, active:
PPP1R14C (UniProt Q8TAE6) 0.358

log2 fold change, inactive:
PRKCQ (UniProt Q04759) -0.01, PPP1R3D (UniProt O95685) 0.029, PPP5C (UniProt P53041) 0.028, PRMT9 (UniProt Q6P2P2) 0.012, PRKAR1B (UniProt P31321) 0.021, PRKX (UniProt P51817) -0.116, PRORP (UniProt O15091) 0.06, PRNP (UniProt P04156) 0.116, PRPF19 (UniProt Q9UMS4) 0, PPP2R5B (UniProt Q15173) -0.168, PRKD3 (UniProt O94806) 0.423, PPP6R1 (UniProt Q9UPN7) -0.002, PPP6C isoform 3 (UniProt O00743) 0.036, PRKACA (UniProt P17612) 0.115, PRKD2 isoform 3 (UniProt Q9BZL6) -0.15, PPP2R3B (UniProt Q9Y5P8) -0.079, PRKDC (UniProt P78527) 0.132, PRG4 (UniProt Q92954) 0.051, PPP1R13L (UniProt Q8WUF5) 0.133, PRMT1 (UniProt Q99873) 0.076, PROS1 (UniProt P07225) -0.013, PRKCA (UniProt P17252) -0.207, PPP2CB (UniProt E5RHC1) -0.554, PPM1H (UniProt Q9ULR3) 0.157, PRADC1 (UniProt Q9BSG0) -0.002, PPP2R2D (UniProt Q66LE6) 0.084, PRMT7 (UniProt Q9NVM4) -0.045, PPP2R2A isoform 2 (UniProt P63151) 0.034, PPT1 (UniProt P50897) -0.064, PPP1CB (UniProt P62140) 0.007, PRPF6 (UniProt O94906) -0.08
